Results deposited as PubChem BioAssay AID1159578 (Peter MacCallum Cancer Centre, 2015)
The whole screen tested about 18,000 reagents; shown is an unselected part. About 1,030 of them (5.7%) count as active. 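Inactive calls also include pools with fewer than 3300 nuclei, whose migration was not assessed.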 Raw values vary from plate to plate and are shown uncorrected. Entries without a mark were called inactive.

- Screen: 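Genome-wide hunt for genes controlling movement of lymphatic endothelial cells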 (primary screen)
- Cells: human lymphatic endothelial cells
- Knock-down reagent: siRNA pool against human genes, 40 nM
- Timing: 48 h after transfection
- Detection: 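Cells stained with dye and imaged after a scratch; covered wound area and nuclei counted, duplicates averaged, migration set against mock wells and turned into a robust z-score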
- Direction: migration robust z-score: higher = faster migration into the scratch; migration relative to mock: higher = more scratch area covered than mock; nuclei per well: higher = more cells in the well
- Hit rule: 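Migration changed when robust z exceeds 2 or falls below -2 and mean nuclei number is at least 3300; otherwise not called changed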
- Calls: active = migration changed; inactive = no migration change, or too few cells

| gene knocked down | migration robust z-score | migration class with cell-count check | migration relative to mock | nuclei per well, duplicate mean |
| --- | --- | --- | --- | --- |
| CPAP (centrosome assembly and centriole elongation protein) | -0.94 | migration z between -2 and 2; enough cells | 0.62 | 4144 |
| TMEM9B (TMEM9 domain family member B) | 0.97 | migration z between -2 and 2; enough cells | 1.14 | 5987 |
| CLCN1 (chloride voltage-gated channel 1) | -0.13 | migration z between -2 and 2; enough cells | 0.78 | 5650 |
| TK1 (thymidine kinase 1) | 0.01 | migration z between -2 and 2; enough cells | 0.88 | 5398 |
| GPBP1 (GC-rich promoter binding protein 1) | 0.32 | migration z between -2 and 2; enough cells | 0.97 | 6000 |
| MRPL16 (mitochondrial ribosomal protein L16) | -0.72 | migration z between -2 and 2; enough cells | 0.7 | 5336 |
| CTSZ (cathepsin Z) | -0.42 | migration z between -2 and 2; enough cells | 0.72 | 6364 |
| MARK2 (microtubule affinity regulating kinase 2) | -0.99 | under 3300 nuclei; migration not judged | 0.62 | 2916 |
| HNRNPD (heterogeneous nuclear ribonucleoprotein D) | 0.13 | migration z between -2 and 2; enough cells | 0.83 | 5082 |
| CTPS1 (CTP synthase 1) | 0.38 | migration z between -2 and 2; enough cells | 0.88 | 5294 |
| PRDM16 (PR/SET domain 16) | 1.64 | migration z between -2 and 2; enough cells | 1.12 | 6500 |
| VBP1 (VHL binding protein 1) | 0.26 | migration z between -2 and 2; enough cells | 0.96 | 6015 |
| KCNC4 (potassium voltage-gated channel subfamily C member 4) | 0.18 | migration z between -2 and 2; enough cells | 0.84 | 5048 |
| HAUS7 (HAUS augmin like complex subunit 7) | -0.76 | under 3300 nuclei; migration not judged | 0.68 | 2385 |
| RNF167 (ring finger protein 167) | 0.7 | migration z between -2 and 2; enough cells | 0.94 | 4181 |
| FRA10AC1 (FRA10A associated CGG repeat 1) | -1.44 | migration z between -2 and 2; enough cells | 0.51 | 4314 |
| OR5D16 (olfactory receptor family 5 subfamily D member 16) | -0.19 | migration z between -2 and 2; enough cells | 0.84 | 7564 |
| NAA30 (N-alpha-acetyltransferase 30, NatC catalytic subunit) | -1.82 | migration z between -2 and 2; enough cells | 0.42 | 6042 |
| ZNF32 (zinc finger protein 32) | -0.26 | migration z between -2 and 2; enough cells | 0.82 | 6500 |
| SLC33A1 | 0.46 | migration z between -2 and 2; enough cells | 0.9 | 3912 |
| SLC25A27 | 0 | migration z between -2 and 2; enough cells | 0.8 | 4960 |
| LRIG1 (leucine rich repeats and immunoglobulin like domains 1) | 1.99 | migration z between -2 and 2; enough cells | 1.4 | 6117 |
| TNRC6A (trinucleotide repeat containing adaptor 6A) | -1.44 | migration z between -2 and 2; enough cells | 0.51 | 5829 |
| C11orf65 (chromosome 11 open reading frame 65) | 0.8 | migration z between -2 and 2; enough cells | 1.09 | 4605 |
| DAZAP2 (DAZ associated protein 2) | 0.25 | migration z between -2 and 2; enough cells | 0.95 | 5414 |
| SHISA5 (shisa family member 5) | -0.72 | migration z between -2 and 2; enough cells | 0.7 | 5077 |
| DMC1 (DNA meiotic recombinase 1) | 0.98 | under 3300 nuclei; migration not judged | 1 | 3158 |
| NCOA1 (nuclear receptor coactivator 1) | 0.57 | migration z between -2 and 2; enough cells | 0.92 | 4878 |
| CMYA5 (cardiomyopathy associated 5) | -1.14 | migration z between -2 and 2; enough cells | 0.6 | 4874 |
| NOP9 (NOP9 nucleolar protein) | 0.67 | migration z between -2 and 2; enough cells | 1.06 | 7014 |
| DPH5 (diphthamide biosynthesis 5) | -1.61 | migration z between -2 and 2; enough cells | 0.5 | 5594 |
| SRSF5 (serine and arginine rich splicing factor 5) | -0.14 | migration z between -2 and 2; enough cells | 0.84 | 5618 |
| ALG10 (ALG10 alpha-1,2-glucosyltransferase) | 0.31 | migration z between -2 and 2; enough cells | 0.86 | 7025 |
| IGLL1 (immunoglobulin lambda like polypeptide 1) | 2.48 (active) | migration z above 2; enough cells | 1.54 | 6103 |
| PKP3 (plakophilin 3) | -1.1 | migration z between -2 and 2; enough cells | 0.6 | 4719 |
| CRY2 (cryptochrome circadian regulator 2) | -0.86 | migration z between -2 and 2; enough cells | 0.64 | 3681 |

Quoted from the entries so far, 12 entries:
| gene knocked down | migration robust z-score | migration class with cell-count check | migration relative to mock | nuclei per well, duplicate mean |
| --- | --- | --- | --- | --- |
| CTSZ (cathepsin Z) | -0.42 | migration z between -2 and 2; enough cells | 0.72 | 6364 |
| MARK2 (microtubule affinity regulating kinase 2) | -0.99 | under 3300 nuclei; migration not judged | 0.62 | 2916 |
| HNRNPD (heterogeneous nuclear ribonucleoprotein D) | 0.13 | migration z between -2 and 2; enough cells | 0.83 | 5082 |
| CTPS1 (CTP synthase 1) | 0.38 | migration z between -2 and 2; enough cells | 0.88 | 5294 |
| PRDM16 (PR/SET domain 16) | 1.64 | migration z between -2 and 2; enough cells | 1.12 | 6500 |
| VBP1 (VHL binding protein 1) | 0.26 | migration z between -2 and 2; enough cells | 0.96 | 6015 |
| KCNC4 (potassium voltage-gated channel subfamily C member 4) | 0.18 | migration z between -2 and 2; enough cells | 0.84 | 5048 |
| HAUS7 (HAUS augmin like complex subunit 7) | -0.76 | under 3300 nuclei; migration not judged | 0.68 | 2385 |
| RNF167 (ring finger protein 167) | 0.7 | migration z between -2 and 2; enough cells | 0.94 | 4181 |
| FRA10AC1 (FRA10A associated CGG repeat 1) | -1.44 | migration z between -2 and 2; enough cells | 0.51 | 4314 |
| OR5D16 (olfactory receptor family 5 subfamily D member 16) | -0.19 | migration z between -2 and 2; enough cells | 0.84 | 7564 |
| NAA30 (N-alpha-acetyltransferase 30, NatC catalytic subunit) | -1.82 | migration z between -2 and 2; enough cells | 0.42 | 6042 |

More entries follow.
| gene knocked down | migration robust z-score | migration class with cell-count check | migration relative to mock | nuclei per well, duplicate mean |
| --- | --- | --- | --- | --- |
| SLC16A5 | -1.61 | migration z between -2 and 2; enough cells | 0.5 | 4702 |
| KLRK1 (killer cell lectin like receptor K1) | -1.21 | migration z between -2 and 2; enough cells | 0.56 | 5440 |
| PDS5A (PDS5 cohesin associated factor A) | 0.9 | migration z between -2 and 2; enough cells | 1.12 | 6494 |
| IFT38 (intraflagellar transport 38) | 1.1 | migration z between -2 and 2; enough cells | 1.18 | 5365 |
| CD200 (CD200 molecule) | -0.12 | migration z between -2 and 2; enough cells | 0.86 | 6408 |
| SOX12 (SRY-box transcription factor 12) | 0.03 | migration z between -2 and 2; enough cells | 0.9 | 5788 |
| RLIG1 (RNA 5'-phosphate and 3'-OH ligase 1) | -0.63 | migration z between -2 and 2; enough cells | 0.72 | 5596 |
| SLC46A1 | 1.17 | migration z between -2 and 2; enough cells | 1.03 | 6440 |
| FSD1 (fibronectin type III and SPRY domain containing 1) | 0.11 | migration z between -2 and 2; enough cells | 0.92 | 5592 |
| TTLL5 (tubulin tyrosine ligase like 5) | -0.66 | migration z between -2 and 2; enough cells | 0.72 | 6372 |
| SLC25A41 | -3.48 | under 3300 nuclei; migration not judged | -0.04 | 1853 |
| TAB2 (TGF-beta activated kinase 1 (MAP3K7) binding protein 2) | 0.9 | migration z between -2 and 2; enough cells | 1.12 | 6808 |
| CPLX2 (complexin 2) | 1.58 | migration z between -2 and 2; enough cells | 1.3 | 6118 |
| DEAF1 (DEAF1 transcription factor) | -0.22 | migration z between -2 and 2; enough cells | 0.83 | 5602 |
| INTS9 (integrator complex subunit 9) | 0.07 | migration z between -2 and 2; enough cells | 0.9 | 5360 |
| AP4S1 (adaptor related protein complex 4 subunit sigma 1) | 0.8 | migration z between -2 and 2; enough cells | 1.09 | 5183 |
| CCNJL (cyclin J like) | 0.54 | migration z between -2 and 2; enough cells | 1.02 | 6429 |
| KCNS2 | -0.18 | migration z between -2 and 2; enough cells | 0.77 | 6175 |
| TCP11L1 (t-complex 11 like 1) | -2.3 (active) | migration z below -2; enough cells | 0.29 | 3506 |
| VPS36 (vacuolar protein sorting 36 homolog) | 0.94 | migration z between -2 and 2; enough cells | 1.13 | 6406 |
| FOXJ3 (forkhead box J3) | -0.2 | migration z between -2 and 2; enough cells | 0.76 | 5802 |
| LDB3 (LIM domain binding 3) | 0.29 | migration z between -2 and 2; enough cells | 0.96 | 5866 |
| PPP1R8 (protein phosphatase 1 regulatory subunit 8) | -0.57 | migration z between -2 and 2; enough cells | 0.7 | 4606 |
| IRF1 (interferon regulatory factor 1) | 0.08 | migration z between -2 and 2; enough cells | 0.82 | 6050 |
| WDR44 (WD repeat domain 44) | -0.22 | migration z between -2 and 2; enough cells | 0.83 | 4752 |
| OR11H6 (olfactory receptor family 11 subfamily H member 6) | -1.48 | migration z between -2 and 2; enough cells | 0.5 | 4486 |
| RTN2 (reticulon 2) | -1.57 | migration z between -2 and 2; enough cells | 0.48 | 4952 |
| DXO (decapping exoribonuclease) | -0.48 | migration z between -2 and 2; enough cells | 0.76 | 5750 |
| MCM3AP | 0.56 | migration z between -2 and 2; enough cells | 1.03 | 5180 |
| SLC20A1 | 0.52 | migration z between -2 and 2; enough cells | 0.9 | 5534 |
| DPP9 (dipeptidyl peptidase 9) | -2.13 (active) | migration z below -2; enough cells | 0.39 | 3725 |
| CLP1 (cleavage factor polyribonucleotide kinase subunit 1) | -1.69 | migration z between -2 and 2; enough cells | 0.44 | 4994 |
| LSM11 (LSM11, U7 small nuclear RNA associated) | 0.88 | migration z between -2 and 2; enough cells | 1.11 | 5688 |
| VGLL4 (vestigial like family member 4) | 0.6 | migration z between -2 and 2; enough cells | 1.04 | 5611 |
| CYP3A4 (cytochrome P450 family 3 subfamily A member 4) | 0.08 | migration z between -2 and 2; enough cells | 0.82 | 4688 |
| GPR19 (G protein-coupled receptor 19) | -0.44 | migration z between -2 and 2; enough cells | 0.72 | 6858 |
| CCDC159 (coiled-coil domain containing 159) | -0.6 | migration z between -2 and 2; enough cells | 0.73 | 5618 |
